# Measured data: PubChem BioAssay AID504764 (Drosophila RNAi Screening Center, 2011)
# Purpose: 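Knock-downs that raise or lower a Notch target reporter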 (primary screen)
# Cell system: Drosophila Kc167 cells
# Knock-down reagent: long dsRNA against Drosophila genes
# Time to read-out: about 5 days (4 days dsRNA, then 24 h after transfection)
# Challenge: transfection of constitutively active membrane-tethered Notch lacking the extracellular domain, read 24 h later
# Detection: 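Firefly luciferase from an E(spl)m3 reporter with active Notch, plus control-promoter and uninduced reporter wells for normalisation; unnormalised counts, duplicate wells a and b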
# Direction: induced reporter light, run 1, well a and induced reporter light, run 1, well b: higher = more light from the Notch target reporter with active Notch; control promoter light, run 1, well a and control promoter light, run 1, well b: higher = more light from the viral control promoter (cell number, transfection, viability); uninduced reporter light, run 1, well a: higher = more light from the Notch target reporter without active Notch
# Hit rule: 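Hit if the duplicate-averaged log2 ratio of induced to control-promoter light gives a plate-wise z beyond ±2, or induced to uninduced beyond ±1.8; weak-control or discordant-duplicate wells dropped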
# Calls: active = modifier hit (raised or lowered Notch signal); inactive = not a hit
# The deposit covers about 22,000 reagents; below is an unselected part of those with a known target gene and a result. Over the whole deposit, 403 (1.9%) got an active call. 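Unnormalised raw counts per well; ratio z-scores behind the hit calls and whether each hit raises or lowers signal are not deposited.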 Entries without a mark were called inactive. A plus sign joins genes that one reagent is predicted to hit. Not stated in the record: the amount of reagent.
"induced reporter light, run 1, well a","induced reporter light, run 1, well b","control promoter light, run 1, well a","control promoter light, run 1, well b","uninduced reporter light, run 1, well a",predicted target,dsRNA
1.85e5,1.83e5,1.61e5,1.52e5,17505,Fam92,DRSC02952
1.47e5,1.60e5,1.38e5,1.36e5,10695,CG34393,DRSC00419
1.75e5,1.52e5,1.78e5,1.67e5,9500,CG34393,DRSC00710
1.67e5,1.87e5,2.28e5,2.21e5,16880,vret (vreteno),DRSC15640
84305,99880,51535,61655,5862,ND-39 (NADH dehydrogenase (ubiquinone) 39 kDa subunit),DRSC11791
1.12e5,1.12e5,2.09e5,1.98e5,10825,CG31029,DRSC15422
1.11e5,1.16e5,2.71e5,2.42e5,10560,caly (calypso),DRSC07182
68270,92235,1.19e5,1.43e5,4590,CG30156,DRSC04959
83820,82800,1.69e5,1.41e5,8992,iav (inactive),DRSC18363
1.22e5,1.41e5,1.77e5,1.96e5,11825,CG6972,DRSC16159
1.07e5,1.11e5,1.18e5,1.25e5,10235,S-Lap5 (Sperm-Leucylaminopeptidase 5),DRSC06732
94735,95870,1.25e5,1.16e5,10435,bves,DRSC20520
75890,75640,77555,90835,10520,bves,DRSC20554
78960,83010,97895,1.05e5,9320,bves,DRSC20555
77805,89340,80170,56920,5340,Son (Son RNA binding protein),DRSC16400
1.21e5,1.31e5,71175,87050,9035,CG7298,DRSC10802
1.02e5,1.17e5,1.27e5,91805,13915,CG10598,DRSC19358
1.19e5,1.49e5,2.19e5,1.95e5,6828,CG15879,DRSC08487
1.70e5,2.19e5,2.76e5,2.94e5,14310,Blos3,DRSC09573
80270,83475,1.04e5,1.06e5,8095,s-cup (stanley-cup),DRSC06277
78785,72675,1.22e5,1.17e5,8395,s-cup (stanley-cup),DRSC06278
1.70e5,1.38e5,1.93e5,1.79e5,14015,CG13622,DRSC14624
87010,86530,1.30e5,1.15e5,2530,CG18265,DRSC10310
90585,95555,79950,64605,5410,Obp83b (Odorant-binding protein 83b),DRSC12360
96745,1.03e5,1.03e5,97950,8375,CG6847,DRSC19213
78535,87265,80360,72465,10225,CG6847,DRSC20009
1.11e5,1.25e5,1.70e5,2.07e5,6560,CNMa (CNMamide),DRSC08405
73965,1.01e5,67995,68015,5245,nxf4 (nuclear export factor 4),DRSC12548
1.34e5,1.42e5,1.98e5,1.17e5,10610,CG6567 + CG4565,DRSC15599
93225,80900,78290,1.10e5,10000,CG1724,DRSC20548
1.31e5,1.32e5,1.55e5,1.65e5,12800,CG1598,DRSC06598
27335,31495,14485,24405,2500,Cdk1 (Cyclin-dependent kinase 1),DRSC03504
1.89e5,2.05e5,2.47e5,2.86e5,16925,CG6005,DRSC15945
66040,72170,53845,63250,6815,CG15450,DRSC20522
1.16e5,1.45e5,73560,1.04e5,19550,CG9582,DRSC03267
1.74e5 (active),1.43e5,2.82e5,2.55e5,9130,CG14073,DRSC10078
1.98e5,1.59e5,2.24e5,2.69e5,18565,CG34224,DRSC05269
1.16e5,1.18e5,62050,85675,16580,Hand,DRSC02656
2.64e5,2.13e5,2.58e5,2.11e5,17315,CG4586,DRSC18373
1.70e5,1.92e5,1.73e5,1.73e5,13330,CG30349,DRSC06421
95580,87905,99670,1.00e5,6365,CG30349,DRSC06839
1.08e5,1.07e5,1.06e5,81530,8135,nom (numerous disordered muscles),DRSC16389
1.28e5,1.49e5,75665,85330,19955,Toll-4,DRSC03458
46905,39505,55070,41010,2555,spir (spire),DRSC03619
73965,39495,45350,48280,3105,CG10470,DRSC02061
2.08e5,2.43e5,1.69e5,2.01e5,15480,Idgf3 (Imaginal disc growth factor 3),DRSC03351
1.31e5 (active),1.27e5,1.17e5,88225,10755,Ent3 (Equilibrative nucleoside transporter 3),DRSC09822
1.54e5,1.57e5,76075,76150,8700,Chmp1 (Charged multivesicular body protein 1),DRSC10401
1.60e5,1.84e5,1.19e5,70510,15515,Uev1A (Ubiquitin-conjugating enzyme variant 1A),DRSC09763
1.36e5,1.54e5,2.55e5,2.70e5,11085,sloth2 + sloth1,DRSC17922
1.35e5,1.40e5,2.41e5,2.34e5,11335,sloth2 + sloth1,DRSC17923
